Laboratory results published in patent US20250122147A1, “ARYL CYCLOHEXANEDIONE DERIVATIVE OR SALT THEREOF, PEST CONTROL AGENT CONTAINING SAME, AND METHOD FOR USE THEREOF” (ADEKA Corporation, priority 2021, published 2025).
Some of these results come from one statement about several compounds together. At least one structure is not confirmed: it was looked up by name or label, or the drawing left a doubt.

What follows are compounds tested on Dirofilaria immitis (assay: Influence evaluation test on the growth of Dirofilaria immitis). Details: final concentration 10 μM; 24-well plate; seven days.

| Compound | development inhibition rate from the L3 stage larva to the L4-stage larva |
| --- | --- |
| O=C1CC(c2cc(C(F)(F)F)cc(C(F)(F)F)c2)CC(O)=C1C(=O)Nc1ccc(F)cc1 (centres unmarked) [1-2] | not less than 50% |
| O=C1CC(c2ccc(C(F)(F)F)c(Cl)c2)CC(O)=C1C(=O)Nc1ccc(F)cc1 (centres unmarked) [1-3] | not less than 50% |
| O=C1CC(c2ccc(C(F)(F)F)cc2)CC(O)=C1C(=O)Nc1ccc(F)cc1 (centres unmarked) [1-6] | not less than 50% |
| O=C1CC(c2ccc(C(F)(F)F)cc2)CC(O)=C1C(=O)NCc1ccccc1 (centres unmarked) [1-12] | not less than 50% |
| O=C1CC(c2ccc(C(F)(F)F)cc2)CC(O)=C1C(=O)NC(=O)c1ccccc1 (centres unmarked) [1-37] | not less than 50% |
| O=C1CC(c2ccc(C(F)(F)F)cc2)CC(O)=C1C(=O)Nc1cccc2ccccc12 (centres unmarked) [1-39] | not less than 50% |
| O=C1CC(c2ccc(C(F)(F)F)cc2)CC(O)=C1C(=O)Nc1cccs1 (centres unmarked) [1-40] | not less than 50% |
| O=C1CC(c2ccc(C(F)(F)F)cc2)CC(O)=C1C(=O)Nc1ccccc1-c1ccccc1 (centres unmarked) [1-42] | not less than 50% |
| O=C1CC(c2ccc(C(F)(F)F)cc2)CC(O)=C1C(=O)Nc1ccc(-c2ccccc2)cc1 (centres unmarked) [1-46] | not less than 50% |
| CSc1ccc(NC(=O)C2=C(O)CC(c3ccc(C(F)(F)F)cc3)CC2=O)cc1 (centres unmarked) [1-49] | not less than 50% |
| O=C1CC(c2ccc(C(F)(F)F)cc2)CC(O)=C1C(=O)Nc1ccc(Oc2ccccc2)cc1 (centres unmarked) [1-54] | not less than 50% |
| Cc1ccc(C2CC(=O)C(C(=O)Nc3ccc(F)cc3)=C(O)C2)cc1 (centres unmarked) [1-63] | not less than 50% |
| O=C1CC(c2ccc(N3CCOCC3)cc2)CC(O)=C1C(=O)Nc1ccc(F)cc1 (centres unmarked) [1-64] | not less than 50% |
| O=C1CC([c-]2cccc2)CC(O)=C1C(=O)Nc1ccc(F)cc1.[Fe+2].c1cc[cH-]c1 (centres unmarked) [1-67] | not less than 50% |
| O=C1CC(c2ccc(C(F)(F)F)nc2)CC(O)=C1C(=O)Nc1ccc(F)cc1 (centres unmarked) [1-68] | not less than 50% |
| O=C1CC(c2cncnc2)CC(O)=C1C(=O)Nc1ccc(F)cc1 (centres unmarked) [1-73] | not less than 50% |
| O=C1CC(c2cccs2)CC(O)=C1C(=O)Nc1ccc(F)cc1 (centres unmarked) [1-74] | not less than 50% |
| O=C1CC(c2ccc(C(F)(F)F)cc2)CC(O)=C1C(=S)Nc1ccc(F)cc1 (centres unmarked) [1-81] | not less than 50% |
| O=C1CC(c2ccc(N3CCOCC3)cc2)CC(O)=C1C(=S)Nc1ccc(F)cc1 (centres unmarked) [1-124] | not less than 50% |
| O=C1CC(c2ccccc2)(c2ccc(C(F)(F)F)cc2)CC(O)=C1C(=O)Nc1ccc(F)cc1 (centres unmarked) [1-141] | not less than 50% |
| O=C1CC(c2ccc(C(F)(F)F)cc2)CC(O)=C1C(=O)Nc1ccc(C(F)(F)F)cn1 (centres unmarked) [1-142] | not less than 50% |

| Compound | development inhibition rate from the L3 stage larva to the L4-stage larva |
| --- | --- |
| COCCNC(=O)C1=C(O)CC(c2ccc(C(F)(F)F)cc2)CC1=O (centres unmarked) [1-143] | not less than 50% |
| O=C1CC(c2ccc(C(F)(F)F)cc2)CC(O)=C1C(=O)NC1CC1 (centres unmarked) [1-144] | not less than 50% |
| O=C1CC(c2ccc(Cl)s2)CC(O)=C1C(=O)Nc1ccc(F)cc1 (centres unmarked) [1-145] | not less than 50% |
| O=C1CC(c2ccc(C(F)(F)F)cc2)CC(O)=C1C(=O)Nc1ccc(F)nc1 (centres unmarked) [1-146] | not less than 50% |
| O=C1CC(c2ccc(C(F)(F)F)cc2)CC(O)=C1C(=O)Nc1ccnc(F)c1 (centres unmarked) [1-147] | not less than 50% |
| O=C1CC(c2ccc(C(F)(F)F)nc2)CC(O)=C1C(=O)Nc1ccc(F)nc1 (centres unmarked) [1-150] | not less than 50% |
| O=C1CC(c2ccc(C(F)(F)F)nc2)CC(O)=C1C(=O)Nc1ccnc(F)c1 (centres unmarked) [1-151] | not less than 50% |
| O=C1CC(c2cncs2)CC(O)=C1C(=O)Nc1ccc(F)cc1 (centres unmarked) [1-152] | not less than 50% |
| O=C1CC(c2cncs2)CC(O)=C1C(=O)Nc1nccs1 (centres unmarked) [1-154] | not less than 50% |
| O=C1CC(c2ccc(C(F)(F)F)cc2)CC(O)=C1C(=O)Nc1ncc(F)cn1 (centres unmarked) [1-155] | not less than 50% |
| O=C1CC(c2ccc(C(F)(F)F)cc2)CC(O)=C1C(=O)Nc1cccc2ncccc12 (centres unmarked) [1-156] | not less than 50% |
| O=C1CC(c2ccc(C(F)(F)F)cc2)CC(O)=C1C(=O)Nc1ncco1 (centres unmarked) [1-157] | not less than 50% |
| O=C1CC(c2ccc(C(F)(F)F)cc2)CC(O)=C1C(=O)NC1CCS(=O)(=O)CC1 (centres unmarked) [1-160] | not less than 50% |
| O=C1CC(c2ccc(Br)cn2)CC(O)=C1C(=O)Nc1ccc(F)cc1 (centres unmarked) [1-161] | not less than 50% |
| O=C1CC(c2ccc(Br)cn2)CC(O)=C1C(=O)Nc1ccnc(F)c1 (centres unmarked) [1-166] | not less than 50% |
| COC(=O)c1ccc(NC(=O)C2=C(O)CC(c3ccc(C(F)(F)F)cc3)CC2=O)cc1 (centres unmarked) [1-177] | not less than 50% |
| CSc1ccc(C2CC(=O)C(C(=O)Nc3ccc(F)cc3)=C(O)C2)cc1 (centres unmarked) [1-208] | not less than 50% |
| CS(=O)(=O)c1ccc(C2CC(=O)C(C(=O)Nc3ccc(F)cc3)=C(O)C2)cc1 (centres unmarked) [1-210] | not less than 50% |
| C[S+]([O-])c1ccc(C2CC(=O)C(C(=O)Nc3ccc(F)cc3)=C(O)C2)cc1 (centres unmarked) [1-212] | not less than 50% |
| O=C1CC(c2ccc(C(F)(F)F)cc2)CC(NO)=C1C(=O)Nc1ccc(F)cc1 (centres unmarked) [1-226] | not less than 50% |
